# Measured values published in the supplement of paper PMC8728848.
# Some of the results follow.
# B1: PP2A1 (Arabidopsis thaliana) (protein)
# chain: MFRNQDSKYLIPVQKEAPPVTTLPMKASTVKSPHNCEAILRDADPPISLSSVNLSEQLRSGVFLKPKKQIKYWVDERNSNCFMLFAKNLSITWSDDVNYWTWFTEKESPNENVEAVGLKNVCWLDITGKFDTRNLTPGIVYEVVFKVKLEDPAYGWDTPVNLKLVLPNGKEKPQEKKVSLRELPRYKWVDVRVGEFVPEKSAAGEITFSMYEHAAGVWKKGLSLKGVAIRPKQHHHHHH
# Tests used:
# Test in all cases: glycan array binding signal (z-score within array); higher = stronger binding
# Conditions in all cases: glycan notation: IUPAC condensed, linker removed
# Gal(b1-3)Gal = target: Gal(b1-3)Gal
# Method in brief: (§1)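 Glycan array data were curated from 3228 arrays in the Consortium for Functional Glycomics database and kept only where the protein sequence was available. Glycan names were converted to IUPAC-condensed notation, and columns mapping to the same glycan were averaged. The binding signal is a within-array Z-score, averaged across arrays of the same protein sequence at different concentrations or buffers and across linkers. Negative Z-scores can be read as non-binding.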
# Gal(b1-3)Gal(b1-4)GlcNAc = target: Gal(b1-3)Gal(b1-4)GlcNAc
# Method in brief: as §1
# [1] = target: Gal(b1-3)Gal(b1-4)GlcNAc(b1-2)Man(a1-3)[Gal(b1-3)Gal(b1-4)GlcNAc(b1-2)Man(a1-6)]Man(b1-4)GlcNAc(b1-4)GlcNAc
# Method in brief: as §1
# Gal(b1-3)GalNAc = target: Gal(b1-3)GalNAc
# Method in brief: as §1
# [2] = target: Gal(b1-3)GalNAc(a1-3)[Fuc(a1-2)]Gal(b1-4)Glc
# Method in brief: as §1
# [3] = target: Gal(b1-3)GalNAc(a1-3)[Fuc(a1-2)]Gal(b1-4)GlcNAc
# Method in brief: as §1
# [4] = target: Gal(b1-3)GalNAc(b1-3)Gal(a1-4)Gal(b1-4)Glc
# Method in brief: as §1
# [5] = target: Gal(b1-3)GalNAc(b1-4)Gal(b1-4)Glc
# Method in brief: as §1
# [6] = target: Gal(b1-3)GalNAc(b1-4)[Neu5Ac(a2-3)]Gal(b1-4)Glc
# Method in brief: as §1
# Gal(b1-3)GlcNAc = target: Gal(b1-3)GlcNAc
# Method in brief: as §1
# [7] = target: Gal(b1-3)GlcNAc(b1-2)Man(a1-3)[Gal(b1-3)GlcNAc(b1-2)Man(a1-6)]Man(b1-4)GlcNAc(b1-4)GlcNAc
# Method in brief: as §1
# [8] = target: Gal(b1-3)GlcNAc(b1-2)Man(a1-3)[Gal(b1-3)GlcNAc(b1-2)Man(a1-6)]Man(b1-4)GlcNAc(b1-4)[Fuc(a1-6)]GlcNAc
# Method in brief: as §1
# [9] = target: Gal(b1-3)GlcNAc(b1-3)Gal(b1-3)GlcNAc
# Method in brief: as §1
# [10] = target: Gal(b1-3)GlcNAc(b1-3)Gal(b1-4)Glc
# Method in brief: as §1
# [11] = target: Gal(b1-3)GlcNAc(b1-3)Gal(b1-4)GlcNAc
# Method in brief: as §1
# [12] = target: Gal(b1-3)[Fuc(a1-4)]GlcNAc
# Method in brief: as §1
# [13] = target: Gal(b1-3)[Fuc(a1-4)]GlcNAc(b1-2)Man(a1-3)[Gal(b1-3)[Fuc(a1-4)]GlcNAc(b1-2)Man(a1-6)]Man(b1-4)GlcNAc(b1-4)GlcNAc
# Method in brief: as §1
# [14] = target: Gal(b1-3)[Fuc(a1-4)]GlcNAc(b1-2)Man(a1-3)[Gal(b1-3)[Fuc(a1-4)]GlcNAc(b1-2)Man(a1-6)]Man(b1-4)GlcNAc(b1-4)[Fuc(a1-6)]GlcNAc
# Method in brief: as §1
# [15] = target: Gal(b1-3)[Fuc(a1-4)]GlcNAc(b1-3)Gal(b1-3)[Fuc(a1-4)]GlcNAc
# Method in brief: as §1
# [16] = target: Gal(b1-3)[Fuc(a1-4)]GlcNAc(b1-3)Gal(b1-4)GlcNAc
# Method in brief: as §1
# [17] = target: Gal(b1-3)[Fuc(a1-4)]GlcNAc(b1-3)Gal(b1-4)[Fuc(a1-3)]GlcNAc
# Method in brief: as §1
# [18] = target: Gal(b1-3)[GlcNAc(b1-6)]GalNAc
# Method in brief: as §1
# [19] = target: Gal(b1-3)[Neu5Ac(a2-6)]GalNAc
# Method in brief: as §1
# [20] = target: Gal(b1-3)[Neu5Ac(a2-6)]GlcNAc(b1-6)Gal(b1-4)Glc
# Method in brief: as §1
# [21] = target: Gal(b1-3)[Neu5Ac(b2-6)]GalNAc
# Method in brief: as §1
# [22] = target: Gal(b1-4)GalNAc(a1-3)[Fuc(a1-2)]Gal(b1-4)GlcNAc
# Method in brief: as §1
# [23] = target: Gal(b1-4)GalNAc(b1-3)[Fuc(a1-2)]Gal(b1-4)GlcNAc
# Method in brief: as §1
# Gal(b1-4)Glc = target: Gal(b1-4)Glc
# Method in brief: as §1
# Gal(b1-4)Glc6S = target: Gal(b1-4)Glc6S
# Method in brief: as §1
# Gal(b1-4)GlcNAc = target: Gal(b1-4)GlcNAc
# Method in brief: as §1
# [24] = target: Gal(b1-4)GlcNAc(a1-6)Gal(b1-4)GlcNAc
# Method in brief: as §1
# [25] = target: Gal(b1-4)GlcNAc(b1-2)Man(a1-3)Man(b1-4)GlcNAc(b1-4)GlcNAc
# Method in brief: as §1
# [26] = target: Gal(b1-4)GlcNAc(b1-2)Man(a1-3)[Gal(b1-4)GlcNAc(b1-2)Man(a1-6)]Man(b1-4)GlcNAc(b1-4)GlcNAc
# Method in brief: as §1
# [27] = target: Gal(b1-4)GlcNAc(b1-2)Man(a1-3)[Gal(b1-4)GlcNAc(b1-2)Man(a1-6)]Man(b1-4)GlcNAc(b1-4)[Fuc(a1-6)]GlcNAc
# Method in brief: as §1
# [28] = target: Gal(b1-4)GlcNAc(b1-2)Man(a1-3)[Man(a1-6)]Man(b1-4)GlcNAc(b1-4)GlcNAc
# Method in brief: as §1
# [29] = target: Gal(b1-4)GlcNAc(b1-2)Man(a1-6)Man(b1-4)GlcNAc(b1-4)GlcNAc
# Method in brief: as §1
# [30] = target: Gal(b1-4)GlcNAc(b1-2)Man(a1-6)[Man(a1-3)]Man(b1-4)GlcNAc(b1-4)GlcNAc
# Method in brief: as §1
binder,measurement,setting,value
B1,glycan array binding signal (z-score),Gal(b1-3)Gal,-0.257
same,glycan array binding signal (z-score),Gal(b1-3)Gal(b1-4)GlcNAc,-0.619
same,glycan array binding signal (z-score),[1],0.79
same,glycan array binding signal (z-score),Gal(b1-3)GalNAc,-0.309
same,glycan array binding signal (z-score),[2],-0.363
same,glycan array binding signal (z-score),[3],-0.287
same,glycan array binding signal (z-score),[4],0.083
same,glycan array binding signal (z-score),[5],-0.462
same,glycan array binding signal (z-score),[6],-0.569
same,glycan array binding signal (z-score),Gal(b1-3)GlcNAc,-0.488
same,glycan array binding signal (z-score),[7],1.27
same,glycan array binding signal (z-score),[8],0.342
same,glycan array binding signal (z-score),[9],-0.441
same,glycan array binding signal (z-score),[10],-0.088
same,glycan array binding signal (z-score),[11],-0.087
same,glycan array binding signal (z-score),[12],-0.368
same,glycan array binding signal (z-score),[13],0.314
same,glycan array binding signal (z-score),[14],1.34
same,glycan array binding signal (z-score),[15],-0.222
same,glycan array binding signal (z-score),[16],-0.485
same,glycan array binding signal (z-score),[17],-0.295
same,glycan array binding signal (z-score),[18],-0.306
same,glycan array binding signal (z-score),[19],-0.322
same,glycan array binding signal (z-score),[20],0.183
same,glycan array binding signal (z-score),[21],-0.382
same,glycan array binding signal (z-score),[22],-0.498
same,glycan array binding signal (z-score),[23],-0.362
same,glycan array binding signal (z-score),Gal(b1-4)Glc,-0.162
same,glycan array binding signal (z-score),Gal(b1-4)Glc6S,0.116
same,glycan array binding signal (z-score),Gal(b1-4)GlcNAc,-0.411
same,glycan array binding signal (z-score),[24],-0.205
same,glycan array binding signal (z-score),[25],1.02
same,glycan array binding signal (z-score),[26],0.914
same,glycan array binding signal (z-score),[27],0.074
same,glycan array binding signal (z-score),[28],2.93
same,glycan array binding signal (z-score),[29],0.362
same,glycan array binding signal (z-score),[30],0.438

# Fetched one by one from the entries so far:
binder,measurement,setting,value
B1,glycan array binding signal (z-score),[17],-0.295
same,glycan array binding signal (z-score),[24],-0.205
